Laboratory results published in PubChem BioAssay AID1671190 (National Center for Advancing Translational Sciences (NCATS), 2021).
Screen size: about 580,000 compounds; about 6,100 (1.1%) were called active. This list was built around the results that the source calls inconclusive (neither active nor inactive); the mix of calls is not that of the screen. The call rests on the fitted dose curve; in most records, active means well fitted inhibition curve with a large enough effect; inconclusive means small, poorly fitted or top-dose-only effect, or another doubt; inactive means no such curve, though single readings can be large or run the other way. Potencies of inconclusive entries are doubtful fits and often do not repeat.

Chains of the proteins cited; added tags and fusions are not shown. Lines headed by an entry give the natural chain unless they say otherwise; changes in a name come on top.
UniProt P18054: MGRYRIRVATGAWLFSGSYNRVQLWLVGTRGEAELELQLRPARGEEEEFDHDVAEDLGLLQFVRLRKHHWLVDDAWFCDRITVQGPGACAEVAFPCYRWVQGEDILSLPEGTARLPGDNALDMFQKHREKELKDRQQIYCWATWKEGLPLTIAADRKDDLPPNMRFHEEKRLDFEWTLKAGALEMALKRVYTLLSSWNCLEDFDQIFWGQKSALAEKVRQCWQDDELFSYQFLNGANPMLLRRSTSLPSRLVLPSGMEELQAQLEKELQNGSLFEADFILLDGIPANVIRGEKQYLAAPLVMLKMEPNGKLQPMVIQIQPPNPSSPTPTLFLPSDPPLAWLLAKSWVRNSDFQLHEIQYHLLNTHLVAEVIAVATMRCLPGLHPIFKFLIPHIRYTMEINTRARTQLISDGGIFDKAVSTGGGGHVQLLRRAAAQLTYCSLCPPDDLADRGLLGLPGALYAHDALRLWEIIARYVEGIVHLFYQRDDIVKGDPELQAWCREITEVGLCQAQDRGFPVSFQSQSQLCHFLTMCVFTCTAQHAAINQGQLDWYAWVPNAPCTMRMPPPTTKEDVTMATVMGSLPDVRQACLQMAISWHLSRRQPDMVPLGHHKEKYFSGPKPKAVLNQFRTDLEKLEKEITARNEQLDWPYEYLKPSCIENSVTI

molecular target: Polyunsaturated fatty acid lipoxygenase ALOX12 (Homo sapiens) (UniProt P18054); assay: Primary qHTS assay for inhibitors of human arachidonate 12S-lipoxygenase (ALOX12): Round 2; conditions: purified 12hLO, xylenol orange hydroperoxide absorbance; activity change, negative = inhibition: at 108 µM (top of the series) unless noted
Method in brief: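 Purified human 12hLO at 150 nM in 25 mM Hepes, 0.01% Triton X-100, pH 7.0, preincubated 15 min at room temperature with compound. Reaction started with 40 uM arachidonic acid, 30 min at room temperature. Hydroperoxide measured by Fe-xylenol orange, 573/405 nm absorbance ratio.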
On the % scale 0 is the no-effect control and ±100 the full control effect; potency means the concentration at half of the fitted maximal effect.

Row | Compound | Potency | activity change, negative = inhibition
1 | Cc1ccc2nc(CSc3nc(C)ccc3C#N)[nH]c2c1 | inconclusive: 44.7 µM [inhibitor, partial curve, poor fit] | –
2 | COc1ccc(Nc2cc(C)c3ccccc3n2)cc1 | inconclusive: 89.1 µM [inhibitor, single point] | –
3 | O=C(NC(=S)NC12CC3CC(CC(C3)C1)C2)c1ccc(F)cc1 | active: 22.4 µM | –
4 | N#Cc1ccc(Oc2ccc(C(=O)OCC(=O)c3ccc(Cl)cc3)cc2)cc1C#N | – | inactive: 3.49%
5 | Cc1ccc(NCc2ccccc2C#N)c(F)c1 | – | inactive: -45.6%
6 | C=C1Cc2c(Cl)cc3[nH]c4c5c3c2[C@@]2(O)[C@@H]1C[C@@H]2C(C)(C)O[C@H]5[C@@H]1CC[C@@]2(O)[C@@]35O[C@@H]3[C@@H](O)[C@@H](C(=O)O)O[C@H]5CC[C@]2(C)[C@@]41C | inconclusive: 35.5 µM [inhibitor, single point] | –
7 | CCN(CC)C1CCN(Cc2c(C(=O)N3CCCCCCC3)nc3ccc(Cl)cn23)C1 (stereo unspecified) | inconclusive: 39.8 µM [inhibitor, partial curve] | –
8 | Cc1nc2ccc(Cl)cc2cc1C(=O)NC(C)c1ccccc1 (stereo unspecified) | inconclusive: 44.7 µM [inhibitor, partial curve] | –
9 | Cn1c(=O)c2c(nc(NCCc3ccccc3)n2C)n(C)c1=O | – | inactive: 12.2%
10 | COc1ccc(-c2noc([C@@H]3C[C@H](NS(=O)(=O)c4ccc(OC)cc4)CN3C)n2)cc1 | inconclusive: 15.8 µM [inhibitor, full curve] | –
11 | CCc1ccc([C@@H]2CC=C(C(=O)O)[C@H](c3cccc(Cl)c3)N2S(=O)(=O)c2ccc(C)cc2)cc1 | inconclusive: 79.4 µM [inhibitor, partial curve, poor fit] | –
12 | Clc1cccc(OCCn2cncn2)c1Cl | inconclusive: 1 µM [inhibitor, full curve, poor fit] | –
13 | Cc1cnccc1CNC(=O)CC(c1cccc(O)c1)c1cccc(Cl)c1 (stereo unspecified) | inconclusive: 12.6 µM [inhibitor, full curve] | –
14 | CCCSc1oc(-c2ccccc2)nc1S(=O)(=O)c1ccccc1 | inconclusive: 44.7 µM [inhibitor, partial curve] | –
15 | Cc1cc(C(=O)Cn2c(Cl)nc3c2c(=O)n(C)c(=O)n3C)c(C)n1CC(F)(F)F | inconclusive: 17.8 µM [inhibitor, partial curve, poor fit] | –
16 | CC(=O)c1sc(NCc2ccc(C)cc2)nc1C | inconclusive: 35.5 µM [inhibitor, partial curve, poor fit] | –
17 | O=c1cc2c(c(-c3ccccc3)n1Cc1ccccc1)[C@H](CCO)NC2 | inconclusive: 22.4 µM [inhibitor, full curve, poor fit] | –
18 | CC(C)Cn1cc(NC(=O)NCC2CCN(Cc3cccc(Cl)c3)CC2)c2ccccc2c1=O | inconclusive: 31.6 µM [inhibitor, partial curve, poor fit] | –
19 | C[C@@H]1CN([C@@H](C)CO)C(=O)CCCn2nncc2CO[C@@H]1CN(C)S(=O)(=O)c1ccc(Oc2ccccc2)nc1 | – | inconclusive: -32.8% [inhibitor]
20 | Cc1ccccc1OCCNC(=S)Nc1ccccc1 | inconclusive: 44.7 µM [inhibitor, partial curve] | –
21 | O=C1CCCC2=C1C(c1cc(Cl)c(O)c(Cl)c1)C1=C(CCCC1=O)O2 | inconclusive: 50.1 µM [inhibitor, partial curve, poor fit] | –
22 | CCC(=O)Nc1c(S(=O)(=O)c2ccc(OC)cc2)c(C)c(C)n1C(C)C | – | inactive: 13.4%

Row | Compound | Potency | activity change, negative = inhibition
23 | COc1cccc(CNc2nc(NCC3CC3)nc3ccsc23)c1 | inconclusive: 50.1 µM [inhibitor, single point] | –
24 | O=C(O)c1ccc(-c2ccc(C(F)(F)F)cc2)cc1 | inconclusive: 79.4 µM [inhibitor, partial curve] | –
25 | Cc1nc2nc(SCC(=O)C(C)(C)C)[nH]c2cc1Br | – | inactive: 0%
26 | Cc1ccc(CCNC(=O)CS(=O)Cc2nc(-c3ccccc3C)oc2C)cc1 (stereo unspecified) | inconclusive: 112 µM [inhibitor, partial curve, poor fit] | –
27 | Cn1c(=O)oc2cc(S(=O)(=O)NCc3ccccn3)ccc21 | inconclusive: 2 µM [inhibitor, partial curve, poor fit] | –
28 | CCCN1Cc2cccc(C(=O)Nc3c(Cl)cccc3Cl)c2C1=O | – | inactive: -8.63%
29 | Cc1onc(-c2ccccc2)c1C(=O)Oc1ccccc1 | inconclusive: 126 µM [inhibitor, single point] | –
30 | CCOc1ccccc1CN1CCC2(CCN(C(=O)Nc3ccccc3)CC2)Oc2ccccc21 | active: 25.1 µM | –
31 | CCOC(=O)C1CCCCN1Cc1cc(OC)ccc1OC (stereo unspecified) | inconclusive: 0.891 µM [inhibitor, full curve, poor fit] | –
32 | c1ccc(Oc2ncnc3ccccc23)cc1 | – | inactive: 10.9%
33 | Cc1c(CCC(=O)NCc2cccc(Cl)c2)c(=O)oc2c(C)c(O)ccc12 | – | inconclusive: -41.2% [inhibitor]
34 | c1ccc2c(c1)Sc1ccccc1S2 | inconclusive: 89.1 µM [inhibitor, single point] | –
35 | C/C(=C\C(=S)Nc1ccccc1)Nc1ccccc1 | inconclusive: 31.6 µM [inhibitor, partial curve, poor fit] | –
36 | CC(C)n1c(Oc2ccc(F)cc2)nc2c1c(=O)n(C)c(=O)n2C | inconclusive: 3.16 µM [inhibitor, full curve, poor fit] | –
37 | CCN(Cc1ccccc1)S(=O)(=O)c1ccc(C(=O)N(CCCN(C)C)c2nc3cc(C)cc(C)c3s2)cc1 | inconclusive: 70.8 µM [inhibitor, single point] | –
38 | O=[N+]([O-])c1ccc(-c2csc3[n+]2CCS3)cc1 | inconclusive: 39.8 µM [inhibitor, full curve, poor fit] | –
39 | CS(=O)(=O)c1ccc(Cl)c(NC(=O)Cn2cc(C(F)(F)F)cc(Cl)c2=O)c1 | – | inactive: -11.3%
40 | O=C(Cn1ncc2c3ccccc3n(Cc3cccc(Cl)c3)c2c1=O)NCc1cccs1 | inconclusive: 35.5 µM [inhibitor, partial curve, poor fit] | –
41 | CCn1c(SCc2nc(N)nc(Nc3ccccc3)n2)nnc1C1CC1 | – | inactive: -15.6%
42 | CNc1sc2c(c1C#N)CCCC2 | inconclusive: 7.08 µM [inhibitor, full curve, poor fit] | –
43 | CCC(=O)Nc1nnc(-c2ccc(OC)cc2)o1 | – | inactive: 42.8%
44 | Cc1ccc(SCC(=O)Nc2nnc(C(C)(C)C)s2)cc1 | – | inactive: -8.35%

Row | Compound | Potency | activity change, negative = inhibition
45 | CCN(CC)S(=O)(=O)c1cc(NC(=O)CSCc2c(C)noc2C)ccc1C | – | inactive: 1.7%
46 | NC(=O)NCC(=O)N1CCc2onc(-c3cccc4ccccc34)c2C1 | inconclusive: 100 µM [inhibitor, partial curve, poor fit] | –
47 | COc1ccc(-c2c(C)c3cc(OC(C)=O)ccc3oc2=O)cc1OC | – | inactive: 41.9%
48 | CN(C)CCN1C(=O)c2cccc3cc([N+](=O)[O-])cc(c23)C1=O | inconclusive: 89.1 µM [inhibitor, partial curve, poor fit] | –
49 | C/C(=N\NC(=O)c1cc2ccccc2cc1O)c1ccc2c(c1)OCO2 | – | inactive: 428%
50 | CCc1ccc(CC)c(C(=O)Cn2cnc3c2c(=O)n(C)c(=O)n3C)c1 | – | inactive: -10.5%
51 | CCOC(=O)CC(C#N)c1c[nH]c2ccccc12 (stereo unspecified) | inconclusive: 31.6 µM [inhibitor, single point] | –
52 | CC1CCN(c2c(NCc3ccc(C(=O)N4c5ccccc5CC4C)cc3)c(=O)c2=O)CC1 (stereo unspecified) | inconclusive: 44.7 µM [inhibitor, partial curve, poor fit] | –
53 | Cc1ccc(-c2ccc(C(=O)Nc3ccccc3)o2)c2ccccc12 | – | inactive: -18.4%
54 | CCOC(=O)C(=NCCCN(C)C)NNc1ccc(Br)cc1 | inconclusive: 15.8 µM [inhibitor, partial curve, poor fit] | –
55 | COc1ccc(NC(=O)C23CC4CC(C2)CC(c2ccc(C)cc2)(C4)C3)cc1 | – | inactive: -11.3%
56 | COC(=O)c1ccccc1NC(=S)NC(=O)c1ccc2ccccc2c1 | inconclusive: 31.6 µM [inhibitor, partial curve, poor fit] | –
57 | COc1ccc(-c2[nH][nH]c(=O)c2NC(=O)c2ccc([N+](=O)[O-])cc2)cc1 | inconclusive: 12.6 µM [inhibitor, full curve, poor fit] | –
58 | Cc1ccc(NC(=O)NCCN2CCN(C(=O)Nc3ccc(C)cc3)CC2)cc1 | inconclusive: 100 µM [inhibitor, partial curve, poor fit] | –
59 | Cc1cccc(OCc2nnc(SCC(=O)N3c4ccccc4CC3C)n2C)c1C (stereo unspecified) | inconclusive: 44.7 µM [inhibitor, partial curve, poor fit] | –
60 | CCN(CC)C(=O)CSc1nnc(COc2ccc(OC)cc2)n1N | – | inactive: 0%
61 | COc1ccccc1C=Cc1ccnc2ccccc12 | inconclusive: 50.1 µM [inhibitor, partial curve, poor fit] | –
62 | Cn1c(CCc2ccccc2)nnc1SCC(N)=O | inconclusive: 12.6 µM [inhibitor, partial curve, poor fit] | –
63 | CCCN1CCC(N(C)C(=O)Nc2ccc(F)cc2F)CC1 | inconclusive: 126 µM [inhibitor, partial curve, poor fit] | –
64 | C[C@H]1CN([C@@H](C)CO)C(=O)CCCn2nncc2CO[C@@H]1CN(C)Cc1ccc(Oc2ccccc2)cc1 | inconclusive: 112 µM [inhibitor, partial curve, poor fit] | –
65 | CCOC(=O)c1c(C)nsc1NC(=O)C1CCCCC1 | inconclusive: 0.355 µM [inhibitor, full curve, poor fit] | –
66 | CCOC(=O)C1=C(C)NC2=C(C(=O)C(C(=O)OCC)C(c3ccccc3OC)C2)C1c1ccccn1 (stereo unspecified) | inconclusive: 112 µM [inhibitor, single point] | –

Record cards (already shown).
`COC(=O)c1ccccc1NC(=S)NC(=O)c1ccc2ccccc2c1` reads Potency: inconclusive: 31.6 µM [inhibitor, partial curve, poor fit]
`Cc1ccc(NC(=O)NCCN2CCN(C(=O)Nc3ccc(C)cc3)CC2)cc1` reads Potency: inconclusive: 100 µM [inhibitor, partial curve, poor fit]
`Cn1c(CCc2ccccc2)nnc1SCC(N)=O` reads Potency: inconclusive: 12.6 µM [inhibitor, partial curve, poor fit]
